Experimental data taken from patent US10072023B2, “Diarylethene compounds and uses thereof” (SWITCH MATERIALS, INC., priority 2011, dated 2018).

Experiment: Electrochemical switching (Switch: reversible photochromic/electrochromic conversion)
Type: physicochemical
Set-up: key: Y: “Switch” refers to the ability (yes or no) of the compound to be reversibly converted under photochromic and electrochromic conditions between a ring-open isomer and ring-closed isomer
Settings: reversibly converted under photochromic and electrochromic conditions

Structure (SMILES) | Switch
CC(C)CCOc1ccc(-c2cc(C3=C(c4cc(-c5ccc(OCCC(C)C)cc5)sc4-c4ccc(OCCC(C)C)cc4)C(F)(F)C(F)(F)C3(F)F)c(-c3ccc(OCCC(C)C)cc3)s2)cc1 [S094, 3,3′-(perfluorocyclopent-1-ene-1,2-diyl)bis(2,5-bis(4-(isopentyloxy)phenyl)thiophene)] | Y
CC(C)(C)COc1ccc(-c2cc(C3=C(c4cc(-c5ccc(OCC(C)(C)C)cc5)sc4-c4ccc(OCC(C)(C)C)cc4)C(F)(F)C(F)(F)C3(F)F)c(-c3ccc(OCC(C)(C)C)cc3)s2)cc1 [S095, 3,3′-(perfluorocyclopent-1-ene-1,2-diyl)bis(2,5-bis(4-(neopentyloxy)phenyl)thiophene)] | Y
COc1cccc(-c2cc(C3=C(c4cc(-c5cccc(OC)c5)sc4-c4cccc(OC)c4)C(F)(F)C(F)(F)C3(F)F)c(-c3cccc(OC)c3)s2)c1 [S096, 3,3′-(perfluorocyclopent-1-ene-1,2-diyl)bis(2,5-bis(3-methoxyphenyl)thiophene)] | Y
COc1cc(OC)cc(-c2cc(C3=C(c4cc(-c5cc(OC)cc(OC)c5)sc4-c4cc(OC)cc(OC)c4)C(F)(F)C(F)(F)C3(F)F)c(-c3cc(OC)cc(OC)c3)s2)c1 [S097, 3,3′-(perfluorocyclopent-1-ene-1,2-diyl)bis(2,5-bis(3,5-dimethoxyphenyl)thiophene)] | Y
COCCOc1ccc(-c2sc(-c3ccc(C(C)(C)C)s3)cc2C2=C(c3cc(-c4ccc(C(C)(C)C)s4)sc3-c3ccc(OCCOC)cc3)C(F)(F)C(F)(F)C2(F)F)cc1 [S104, 4,4″-(perfluorocyclopent-1-ene-1,2-diyl)bis(5′-(tert-butyl)-5-(4-(2-methoxyethoxy)phenyl)-2,2′-bithiophene)] | Y
CC(C)(C)c1ccc(-c2cc(C3=C(c4cc(-c5ccc(C(C)(C)C)s5)sc4-c4ccc(O)cc4)C(F)(F)C(F)(F)C3(F)F)c(-c3ccc(O)cc3)s2)s1 [S105, 4,4′-(4,4″-(perfluorocyclopent-1-ene-1,2-diyl)bis(5′-(tert-butyl)-[2,2′-bithiophene]-5,4-diyl))diphenol] | Y
COCCOCCOCCOc1ccc(-c2sc(-c3ccc(C(C)(C)C)s3)cc2C2=C(c3cc(-c4ccc(C(C)(C)C)s4)sc3-c3ccc(OCCOCCOCCOC)cc3)C(F)(F)C(F)(F)C2(F)F)cc1 [S108] | Y
CCOCCOCCOCCOc1ccc(-c2sc(-c3ccc(C(C)(C)C)s3)cc2C2=C(c3cc(-c4ccc(C(C)(C)C)s4)sc3-c3ccc(OCCOCCOCCOCC)cc3)C(F)(F)C(F)(F)C2(F)F)cc1 [S109, 4,4″-(perfluorocyclopent-1-ene-1,2-diyl)bis(5′-(tert-butyl)-5-(4-(2-(2-(2-ethoxyethoxy)ethoxy)ethoxy)phenyl)-2,2′-bithiophene)] | Y
COc1ccc(-c2sc(-c3cc4ccccc4s3)cc2C2=C(c3cc(-c4cc5ccccc5s4)sc3-c3ccc(OC)cc3)C(F)(F)C(F)(F)C2(F)F)cc1 [S110, 2,2′-(4,4′-(perfluorocyclopent-1-ene-1,2-diyl)bis(5-(4-methoxyphenyl)thiophene-4,2-diyl))bis(benzo[b]thiophene)] | Y
CC(C)(C)c1ccc(-c2cc(C3=C(c4cc(-c5ccc(C(C)(C)C)s5)sc4-c4ccc(OCCCO)cc4)C(F)(F)C(F)(F)C3(F)F)c(-c3ccc(OCCCO)cc3)s2)s1 [S111, 3,3′-(4,4′-(4,4′-(perfluorocyclopent-1-ene-1,2-diyl)bis(5′-tert-butyl-2,2′-bithiophene-5,4-diyl))bis(4,1-phenylene)bis(oxy))dipropan-1-ol] | Y
CC(C)(C)c1ccc(-c2cc(C3=C(c4cc(-c5ccc(C(C)(C)C)s5)sc4-c4ccc(N5CCOCC5)cc4)C(F)(F)C(F)(F)C3(F)F)c(-c3ccc(N4CCOCC4)cc3)s2)s1 [S112, 4,4′-((4,4″-(perfluorocyclopent-1-ene-1,2-diyl)bis(5′-(tert-butyl)-[2,2′-bithiophene]-5,4-diyl))bis(4,1-phenylene))dimorpholine] | Y
CC(C)(C)c1ccc(-c2cc(C3=C(c4cc(-c5ccc(C(C)(C)C)s5)sc4-c4ccc(O[Si](O[Si](C)(C)C)(O[Si](C)(C)C)O[Si](C)(C)C)cc4)C(F)(F)C(F)(F)C3(F)F)c(-c3ccc(O[Si](O[Si](C)(C)C)(O[Si](C)(C)C)O[Si](C)(C)C)cc3)s2)s1 [S118] | Y
CC(C)(C)c1ccc(-c2cc(C3=C(c4cc(-c5ccc(C(C)(C)C)s5)sc4-c4ccc(C(=O)O)s4)C(F)(F)C(F)(F)C3(F)F)c(-c3ccc(C(=O)O)s3)s2)s1 [S119] | Y
CC(C)(C)c1ccc(-c2cc(C3=C(c4cc(-c5sc(C(C)(C)C)cc5C(=O)O)sc4-c4ccc(C(=O)O)s4)C(F)(F)C(F)(F)C3(F)F)c(-c3ccc(C(=O)O)s3)s2)s1 [S124] | Y
CCOCCOCCOCCOC(CC)(CC)c1ccc(-c2sc(-c3ccc(C(C)(C)C)s3)cc2C2=C(c3cc(-c4ccc(C(C)(C)C)s4)sc3-c3ccc(C(CC)(CC)OCCOCCOCCOCC)s3)C(F)(F)C(F)(F)C2(F)F)s1 [S128, 13,13′-(3′,3″″-(perfluorocyclopent-1-ene-1,2-diyl)bis(5″-(tert-butyl)-[2,2′: 5′,2″-terthiophene]-5,3′-diyl))bis(13-ethyl-3,6,9,12-tetraoxapentadecane)] | Y
C[Si](C)(C)c1ccc(-c2cc(C3=C(c4cc(-c5ccc([Si](C)(C)C)s5)sc4-c4ccc([Si](C)(C)C)s4)C(F)(F)C(F)(F)C3(F)F)c(-c3ccc([Si](C)(C)C)s3)s2)s1 [S135, 3′,3″″-(perfluorocyclopent-1-ene-1,2-diyl)bis(5,5″-bis(trimethylsilyl)-2,2′:5′,2″-terthiophene)] | Y
Cc1ccc(-c2oc3ccccc3c2C2=C(c3c(-c4ccc(C)s4)oc4ccccc34)C(F)(F)C(F)(F)C2(F)F)s1 [S137, 3,3′-(perfluorocyclopent-1-ene-1,2-diyl)bis(2-(5-methylthiophen-2-yl)benzofuran)] | Y
COCCC[Si](CCCOC)(CCCOC)c1ccc(-c2cc(C3=C(c4cc(-c5ccc([Si](CCCOC)(CCCOC)CCCOC)s5)sc4-c4ccc([Si](CCCOC)(CCCOC)CCCOC)s4)C(F)(F)C(F)(F)C3(F)F)c(-c3ccc([Si](CCCOC)(CCCOC)CCCOC)s3)s2)s1 [S138] | Y
CC(C)(C)c1ccc(-c2cc(C3=C(c4cc(-c5ccc(C(C)(C)C)s5)sc4-c4ccc(OCCCCC#N)cc4)C(F)(F)C(F)(F)C3(F)F)c(-c3ccc(OCCCCC#N)cc3)s2)s1 [S139, 5,5′-(((4,4″-(perfluorocyclopent-1-ene-1,2-diyl)bis(5′-(tert-butyl)-[2″,2″′-bithiophene]-5″,4-diyl))bis(4,1phenylene))bis(oxy))dipentanenitrile] | Y
COc1ccc(-c2oc3cc(OC)ccc3c2C2=C(c3c(-c4ccc(OC)cc4)oc4cc(OC)ccc34)C(F)(F)C(F)(F)C2(F)F)cc1 [S140, 3,3′-(perfluorocyclopent-1-ene-1,2-diyl)bis(6-methoxy-2-(4-methoxyphenyl)benzofuran)] | Y
CC(C)(C)c1ccc(-c2cc(C3=C(c4cc(-c5ccc(C(C)(C)C)s5)sc4-c4ccc(OCCCCC(=O)O)cc4)C(F)(F)C(F)(F)C3(F)F)c(-c3ccc(OCCCCC(=O)O)cc3)s2)s1 [S141, 5,5′-(4,4′-(4,4′-(perfluorocyclopent-1-ene-1,2-diyl)bis(5′-tert-butyl-2,2′-bithiophene-5,4-diyl))bis(4,1-phenylene)bis(oxy))dipentanoic acid] | Y
COc1ccc2c(C3=C(c4c(-c5ccc(C)s5)oc5cc(OC)ccc45)C(F)(F)C(F)(F)C3(F)F)c(-c3ccc(C)s3)oc2c1 [S144, 3,3′-(perfluorocyclopent-1-ene-1,2-diyl)bis(6-methoxy-2-(5-methylthiophen-2-yl)benzofuran)] | Y
Cc1cc(-c2sc(-c3sc(C)c(C)c3C)cc2C2=C(c3cc(-c4sc(C)c(C)c4C)sc3-c3cc(C)c(C)s3)C(F)(F)C(F)(F)C2(F)F)sc1C [S148, 4′,4″″-(perfluorocyclopent-1-ene-1,2-diyl)bis(3,4,4″,5,5″-pentamethyl-2,2′:5′,2″-terthiophene)] | Y
Cc1csc(-c2cc(C3=C(c4cc(-c5cc(C)cs5)sc4-c4cc(C)cs4)C(F)(F)C(F)(F)C3(F)F)c(-c3cc(C)cs3)s2)c1 [S149, 3′,3″″-(perfluorocyclopent-1-ene-1,2-diyl)bis(4,4″-dimethyl-2,2′:5′,2″-terthiophene)] | Y
COc1ccc2c(C3=C(c4c(-c5ccc(C(C)(C)C)cc5)oc5cc(OC)ccc45)C(F)(F)C(F)(F)C3(F)F)c(-c3ccc(C(C)(C)C)cc3)oc2c1 [S151, 3,3′-(perfluorocyclopent-1-ene-1,2-diyl)bis(2-(4-(tert-butyl)phenyl)-6-methoxybenzofuran)] | Y
COc1ccc2c(C3=C(c4c(-c5ccc(-c6ccc(C(C)(C)C)s6)s5)oc5cc(OC)ccc45)C(F)(F)C(F)(F)C3(F)F)c(-c3ccc(-c4ccc(C(C)(C)C)s4)s3)oc2c1 [S152, 3,3′-(perfluorocyclopent-1-ene-1,2-diyl)bis(2-(5′-(tert-butyl)-[2,2′-bithiophen]-5-yl)-6-methoxybenzofuran)] | Y
COc1ccc2c(C3=C(c4c(-c5ccc(OC)c(OC)c5)oc5cc(OC)ccc45)C(F)(F)C(F)(F)C3(F)F)c(-c3ccc(OC)c(OC)c3)oc2c1 [S155, 3,3′-(perfluorocyclopent-1-ene-1,2-diyl)bis(2-(3,4-dimethoxyphenyl)-6-methoxybenzofuran)] | Y
COCCC[Si](CCCOC)(CCCOC)c1ccc(-c2sc(-c3ccc(C(C)(C)C)s3)cc2C2=C(c3cc(-c4ccc(C(C)(C)C)s4)sc3-c3ccc([Si](CCCOC)(CCCOC)CCCOC)s3)C(F)(F)C(F)(F)C2(F)F)s1 [S158] | Y
CCOCCOCCOCCOc1ccc2c(C3=C(c4c(-c5ccc(C(C)(C)C)cc5)oc5cc(OCCOCCOCCOCC)ccc45)C(F)(F)C(F)(F)C3(F)F)c(-c3ccc(C(C)(C)C)cc3)oc2c1 [S161, 3,3′-(perfluorocyclopent-1-ene-1,2-diyl)bis(2-(4-(tert-butyl)phenyl)-6-(2-(2-(2-ethoxyethoxy)ethoxy)ethoxy)benzofuran)] | Y
CC(C)(C)c1ccc(-c2oc3cc(O)ccc3c2C2=C(c3c(-c4ccc(C(C)(C)C)cc4)oc4cc(O)ccc34)C(F)(F)C(F)(F)C2(F)F)cc1 [S162, 3,3′-(perfluorocyclopent-1-ene-1,2-diyl)bis(2-(4-(tert-butyl)phenyl)benzofuran-6-ol)] | Y
